According to the supplement of paper PMC10849652:
Some of the results follow.

The chains behind the UniProt entries cited, without tags or fusion partners. Where a name states a change or a piece, a line headed by the entry shows the natural chain unless it says otherwise.
UniProt O00754: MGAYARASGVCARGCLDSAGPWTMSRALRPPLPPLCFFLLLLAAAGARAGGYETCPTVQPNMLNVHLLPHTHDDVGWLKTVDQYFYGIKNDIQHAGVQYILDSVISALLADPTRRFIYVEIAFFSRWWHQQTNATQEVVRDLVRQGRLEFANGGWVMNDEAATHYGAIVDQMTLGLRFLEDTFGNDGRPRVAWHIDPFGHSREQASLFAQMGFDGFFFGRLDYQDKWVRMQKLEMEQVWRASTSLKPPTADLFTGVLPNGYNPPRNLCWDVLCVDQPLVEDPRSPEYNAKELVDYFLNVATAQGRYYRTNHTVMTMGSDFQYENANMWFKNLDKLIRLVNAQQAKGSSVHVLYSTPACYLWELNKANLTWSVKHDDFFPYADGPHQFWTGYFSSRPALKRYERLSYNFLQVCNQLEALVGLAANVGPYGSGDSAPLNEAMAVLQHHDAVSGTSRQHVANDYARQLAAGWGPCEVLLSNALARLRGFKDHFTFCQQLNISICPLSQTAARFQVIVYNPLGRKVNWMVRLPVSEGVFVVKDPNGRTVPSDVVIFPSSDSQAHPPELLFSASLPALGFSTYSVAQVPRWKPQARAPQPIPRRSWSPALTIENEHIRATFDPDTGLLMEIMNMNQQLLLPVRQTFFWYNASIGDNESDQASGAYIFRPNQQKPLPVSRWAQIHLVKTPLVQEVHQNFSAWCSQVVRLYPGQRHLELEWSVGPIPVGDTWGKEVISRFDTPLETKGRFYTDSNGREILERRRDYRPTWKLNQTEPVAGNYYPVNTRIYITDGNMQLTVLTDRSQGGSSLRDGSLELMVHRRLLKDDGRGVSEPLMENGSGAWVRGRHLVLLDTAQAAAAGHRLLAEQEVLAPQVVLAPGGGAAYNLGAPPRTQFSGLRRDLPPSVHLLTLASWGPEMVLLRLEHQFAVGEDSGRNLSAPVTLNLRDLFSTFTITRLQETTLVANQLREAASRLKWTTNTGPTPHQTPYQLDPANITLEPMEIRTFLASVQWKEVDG
UniProt P43362: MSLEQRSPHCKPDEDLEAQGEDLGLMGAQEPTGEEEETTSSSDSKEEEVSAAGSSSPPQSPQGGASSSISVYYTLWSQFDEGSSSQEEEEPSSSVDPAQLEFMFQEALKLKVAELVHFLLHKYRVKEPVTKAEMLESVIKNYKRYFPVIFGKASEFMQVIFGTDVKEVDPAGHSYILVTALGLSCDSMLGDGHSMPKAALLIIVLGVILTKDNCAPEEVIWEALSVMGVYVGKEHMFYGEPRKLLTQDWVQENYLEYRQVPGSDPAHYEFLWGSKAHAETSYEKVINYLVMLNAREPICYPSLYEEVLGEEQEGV
UniProt P49006: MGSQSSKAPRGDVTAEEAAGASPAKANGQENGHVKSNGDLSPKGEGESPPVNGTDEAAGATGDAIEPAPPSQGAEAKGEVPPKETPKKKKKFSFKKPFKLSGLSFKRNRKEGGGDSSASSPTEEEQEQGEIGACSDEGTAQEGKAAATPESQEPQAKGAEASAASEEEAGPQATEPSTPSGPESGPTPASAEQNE
UniProt P46821: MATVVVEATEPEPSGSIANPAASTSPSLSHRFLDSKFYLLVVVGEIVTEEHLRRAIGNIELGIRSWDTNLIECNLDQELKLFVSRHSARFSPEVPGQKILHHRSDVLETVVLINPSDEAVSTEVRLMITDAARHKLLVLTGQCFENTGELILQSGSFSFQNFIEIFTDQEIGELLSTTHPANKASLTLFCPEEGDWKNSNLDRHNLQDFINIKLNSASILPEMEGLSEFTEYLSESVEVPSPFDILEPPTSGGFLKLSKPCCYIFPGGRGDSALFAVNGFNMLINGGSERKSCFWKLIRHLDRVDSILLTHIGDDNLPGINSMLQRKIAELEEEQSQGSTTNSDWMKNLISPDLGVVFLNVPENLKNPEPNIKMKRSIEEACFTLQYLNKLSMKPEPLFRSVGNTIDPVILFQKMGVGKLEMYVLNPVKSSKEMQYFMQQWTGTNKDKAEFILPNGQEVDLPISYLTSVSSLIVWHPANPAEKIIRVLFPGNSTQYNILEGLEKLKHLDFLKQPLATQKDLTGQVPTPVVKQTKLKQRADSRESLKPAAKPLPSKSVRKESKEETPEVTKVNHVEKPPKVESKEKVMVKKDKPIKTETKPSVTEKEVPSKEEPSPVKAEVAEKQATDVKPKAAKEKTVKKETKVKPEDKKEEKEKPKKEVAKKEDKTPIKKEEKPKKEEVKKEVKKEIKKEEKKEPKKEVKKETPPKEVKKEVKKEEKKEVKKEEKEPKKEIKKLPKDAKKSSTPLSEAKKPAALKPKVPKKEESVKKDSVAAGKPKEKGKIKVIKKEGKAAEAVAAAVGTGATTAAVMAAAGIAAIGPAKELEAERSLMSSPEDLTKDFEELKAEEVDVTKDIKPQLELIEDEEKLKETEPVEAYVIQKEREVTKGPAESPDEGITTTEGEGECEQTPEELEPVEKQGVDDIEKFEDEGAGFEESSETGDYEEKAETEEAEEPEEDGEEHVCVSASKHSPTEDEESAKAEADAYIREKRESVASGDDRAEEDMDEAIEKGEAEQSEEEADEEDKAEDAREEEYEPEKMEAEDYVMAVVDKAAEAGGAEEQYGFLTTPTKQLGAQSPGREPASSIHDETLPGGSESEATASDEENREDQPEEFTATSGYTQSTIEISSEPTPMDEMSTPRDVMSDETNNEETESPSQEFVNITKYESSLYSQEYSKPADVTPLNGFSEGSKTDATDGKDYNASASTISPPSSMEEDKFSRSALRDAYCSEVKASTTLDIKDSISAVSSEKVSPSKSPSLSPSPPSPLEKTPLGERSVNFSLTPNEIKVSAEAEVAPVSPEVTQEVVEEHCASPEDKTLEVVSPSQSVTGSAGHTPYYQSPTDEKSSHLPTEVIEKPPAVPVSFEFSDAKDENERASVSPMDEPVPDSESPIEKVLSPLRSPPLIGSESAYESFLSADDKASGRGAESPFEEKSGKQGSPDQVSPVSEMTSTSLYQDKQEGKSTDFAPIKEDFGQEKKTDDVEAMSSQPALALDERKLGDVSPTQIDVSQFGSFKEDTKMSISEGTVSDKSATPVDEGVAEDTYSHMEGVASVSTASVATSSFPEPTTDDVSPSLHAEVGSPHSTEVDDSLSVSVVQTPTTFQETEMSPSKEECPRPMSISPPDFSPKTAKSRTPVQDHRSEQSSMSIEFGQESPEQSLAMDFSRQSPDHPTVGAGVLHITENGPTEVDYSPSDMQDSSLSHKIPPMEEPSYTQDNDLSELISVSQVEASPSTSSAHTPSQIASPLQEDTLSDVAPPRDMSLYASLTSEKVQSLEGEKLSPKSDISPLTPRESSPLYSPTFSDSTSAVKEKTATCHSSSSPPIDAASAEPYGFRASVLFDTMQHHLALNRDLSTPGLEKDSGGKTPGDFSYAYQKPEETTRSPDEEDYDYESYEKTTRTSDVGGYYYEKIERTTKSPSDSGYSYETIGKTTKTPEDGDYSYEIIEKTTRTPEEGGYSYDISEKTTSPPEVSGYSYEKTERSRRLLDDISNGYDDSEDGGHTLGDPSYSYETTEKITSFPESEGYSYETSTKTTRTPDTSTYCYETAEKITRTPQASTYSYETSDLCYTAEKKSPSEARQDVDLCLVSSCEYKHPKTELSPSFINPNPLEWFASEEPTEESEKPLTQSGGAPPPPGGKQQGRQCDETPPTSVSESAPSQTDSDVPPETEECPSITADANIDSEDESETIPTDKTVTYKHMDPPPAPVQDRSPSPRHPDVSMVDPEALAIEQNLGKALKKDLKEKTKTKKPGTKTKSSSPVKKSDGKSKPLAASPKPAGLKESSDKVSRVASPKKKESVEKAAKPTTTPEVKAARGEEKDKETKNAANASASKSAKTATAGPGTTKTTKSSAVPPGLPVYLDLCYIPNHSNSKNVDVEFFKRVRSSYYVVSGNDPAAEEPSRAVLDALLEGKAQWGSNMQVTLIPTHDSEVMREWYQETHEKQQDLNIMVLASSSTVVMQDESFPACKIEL
UniProt Q8IW41: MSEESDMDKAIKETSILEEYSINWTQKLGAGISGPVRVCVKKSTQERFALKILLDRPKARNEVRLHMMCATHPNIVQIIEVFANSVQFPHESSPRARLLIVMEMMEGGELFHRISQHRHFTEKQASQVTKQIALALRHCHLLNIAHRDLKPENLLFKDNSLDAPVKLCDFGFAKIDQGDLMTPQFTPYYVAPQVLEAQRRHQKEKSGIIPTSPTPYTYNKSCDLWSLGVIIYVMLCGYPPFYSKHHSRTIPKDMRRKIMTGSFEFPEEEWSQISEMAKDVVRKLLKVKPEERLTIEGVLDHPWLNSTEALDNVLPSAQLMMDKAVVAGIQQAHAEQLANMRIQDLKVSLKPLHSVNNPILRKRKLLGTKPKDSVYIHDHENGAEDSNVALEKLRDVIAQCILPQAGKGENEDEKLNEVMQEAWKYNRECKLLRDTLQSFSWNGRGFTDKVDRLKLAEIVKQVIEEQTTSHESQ
UniProt Q9BRK4: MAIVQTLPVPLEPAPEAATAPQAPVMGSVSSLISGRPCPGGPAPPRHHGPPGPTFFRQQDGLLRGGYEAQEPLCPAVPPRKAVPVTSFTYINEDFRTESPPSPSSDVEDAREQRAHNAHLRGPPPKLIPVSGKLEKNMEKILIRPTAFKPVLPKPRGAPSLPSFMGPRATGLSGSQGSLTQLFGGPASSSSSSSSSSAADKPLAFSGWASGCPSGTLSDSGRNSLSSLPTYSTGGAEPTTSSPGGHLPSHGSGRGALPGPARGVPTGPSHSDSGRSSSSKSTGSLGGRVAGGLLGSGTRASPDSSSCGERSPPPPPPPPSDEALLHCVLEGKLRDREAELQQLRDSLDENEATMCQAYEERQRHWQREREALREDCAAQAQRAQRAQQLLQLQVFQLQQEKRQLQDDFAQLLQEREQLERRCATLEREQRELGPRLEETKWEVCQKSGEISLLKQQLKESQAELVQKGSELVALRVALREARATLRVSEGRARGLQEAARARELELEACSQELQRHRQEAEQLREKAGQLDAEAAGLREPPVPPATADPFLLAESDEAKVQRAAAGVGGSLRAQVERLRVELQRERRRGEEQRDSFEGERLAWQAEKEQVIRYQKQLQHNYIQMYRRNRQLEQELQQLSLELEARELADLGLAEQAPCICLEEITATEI
UniProt Q9NU23: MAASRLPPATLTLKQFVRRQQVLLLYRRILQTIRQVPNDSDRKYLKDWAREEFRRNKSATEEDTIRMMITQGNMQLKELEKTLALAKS
UniProt P07948: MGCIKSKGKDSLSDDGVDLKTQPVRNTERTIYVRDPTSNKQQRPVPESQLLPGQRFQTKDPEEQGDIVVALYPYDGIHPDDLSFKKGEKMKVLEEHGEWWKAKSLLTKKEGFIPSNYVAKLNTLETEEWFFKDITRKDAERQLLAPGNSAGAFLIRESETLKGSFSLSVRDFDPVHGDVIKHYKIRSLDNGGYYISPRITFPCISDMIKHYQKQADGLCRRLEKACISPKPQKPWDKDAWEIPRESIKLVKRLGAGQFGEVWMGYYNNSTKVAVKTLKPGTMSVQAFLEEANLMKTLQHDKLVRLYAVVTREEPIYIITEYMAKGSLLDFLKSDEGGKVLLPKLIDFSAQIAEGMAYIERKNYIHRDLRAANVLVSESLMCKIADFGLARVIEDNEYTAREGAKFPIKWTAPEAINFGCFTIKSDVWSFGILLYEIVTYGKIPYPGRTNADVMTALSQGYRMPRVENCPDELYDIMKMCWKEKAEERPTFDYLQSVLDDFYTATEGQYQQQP
UniProt Q9ULX9: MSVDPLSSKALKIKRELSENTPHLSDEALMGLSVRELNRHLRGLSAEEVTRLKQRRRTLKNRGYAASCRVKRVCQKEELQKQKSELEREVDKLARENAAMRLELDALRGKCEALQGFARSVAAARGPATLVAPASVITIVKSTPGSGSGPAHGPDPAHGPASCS
UniProt P20645: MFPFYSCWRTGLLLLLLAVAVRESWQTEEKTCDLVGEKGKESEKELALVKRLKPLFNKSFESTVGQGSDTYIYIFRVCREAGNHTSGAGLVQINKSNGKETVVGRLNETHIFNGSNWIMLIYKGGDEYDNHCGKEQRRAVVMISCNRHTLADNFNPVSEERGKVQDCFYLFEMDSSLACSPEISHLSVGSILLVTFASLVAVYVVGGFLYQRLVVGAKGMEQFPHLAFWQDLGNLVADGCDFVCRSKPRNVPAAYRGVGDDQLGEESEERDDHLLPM

What was measured:
Assay in all cases: log2 fold change, soluble protein after heating vs DMSO (PISA); higher = thermal stabilisation; K562 lysate, 10 uM; active = over 0.2 and 3.5 SD of the protein, either way, in both replicates (recomputed)
[1] = compound: NCC(=O)Nc1ccc(-n2nc(C(F)(F)F)cc2-c2ccc3c(ccc4ccccc43)c2)cc1
Summary of the method: (§1)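 Thermal stability, expressed as log-two fold change relative to solvent controls, is given from duplicates. Crude K562 extract in PBS pH 7.4 with 1 mM MgCl2, at 1 mg/mL protein, was treated with 10 μM compound for 30 min and heated in aliquots for 3 min across 48°C-58°C. After pooling, adjustment to 0.5% NP-40 at 4°C and centrifugation at 21,000xg for 90 min, supernatant protein was measured by TMTpro 16plex LC-MS/MS with channel sums equalised.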

vorinostat = compound: O=C(CCCCCCC(=O)Nc1ccccc1)NO [vorinostat]
Summary of the method: as §1

silmitasertib = compound: O=C(O)c1ccc2c(c1)nc(Nc1cccc(Cl)c1)c1ccncc12 [silmitasertib]
Summary of the method: as §1

[2] = compound: O=C1NC(=O)C(c2cnc3ccccn23)=C1c1cn2c3c(cc(F)cc13)CN(C(=O)N1CCCCC1)CC2
Summary of the method: as §1

entospletinib = compound: c1cn2cc(-c3ccc4cn[nH]c4c3)nc(Nc3ccc(N4CCOCC4)cc3)c2n1 [entospletinib]
Summary of the method: as §1

Measured: log2 fold change

MAN2B1 (UniProt O00754)
inactive: [1] 0.008 | vorinostat 0.047 | silmitasertib 0 | [2] 0.004 | entospletinib -0.019

MAML1 (UniProt Q92585)
inactive: [1] -0.258 | vorinostat -0.015 | silmitasertib -0.042 | [2] 0.038 | entospletinib -0.003

MAGEA9 (UniProt P43362)
inactive: [1] 0.028 | vorinostat 0.058 | silmitasertib 0.002 | [2] 0.021 | entospletinib 0.015

MAD2L2 (UniProt Q9UI95)
active: vorinostat -0.348
inactive: [1] 0.075 | silmitasertib -0.006 | [2] -0.02 | entospletinib 0.017

MAP2K3 isoform 3 (UniProt P46734)
inactive: [1] -0.033 | silmitasertib 0.149 | [2] 0.025 | entospletinib 0.072
active: vorinostat -0.577

MAPRE1 (UniProt Q15691)
inactive: [1] 0.002 | vorinostat 0.081 | silmitasertib -0.006 | [2] 0.016 | entospletinib 0.01

MARCKS (UniProt P29966)
inactive: [1] -0.04 | vorinostat 0.038 | silmitasertib -0.022 | [2] -0.094 | entospletinib 0.021

MARK2 (UniProt E9PC69)
inactive: [1] 0.026 | vorinostat -0.167 | [2] 0.006 | entospletinib 0.153
active: silmitasertib 0.486

MAP4 (UniProt P27816)
inactive: [1] 0.017 | vorinostat 0.092 | silmitasertib -0.023 | [2] 0.016 | entospletinib 0.005

MAN2A1 (UniProt Q16706)
inactive: [1] -0.03 | vorinostat 0.121 | silmitasertib -0.017 | [2] -0.009 | entospletinib 0.042

MARCKSL1 (UniProt P49006)
inactive: [1] -0.036 | vorinostat 0.154 | silmitasertib -0.021 | [2] 0.009 | entospletinib 0.031

MAPKAPK3 (UniProt Q16644)
inactive: [1] -0.063 | silmitasertib -0.001 | [2] 0.162 | entospletinib -0.049
active: vorinostat -0.43

MAP2K2 (UniProt P36507)
inactive: [1] -0.031 | vorinostat -0.088 | silmitasertib 0.099 | [2] 0.032 | entospletinib 0.04

MASTL (UniProt Q96GX5)
inactive: [1] 0.169 | vorinostat -0.206 | silmitasertib 0.029 | [2] 0 | entospletinib -0.025

LYSMD3 (UniProt Q7Z3D4)
inactive: [1] 0.01 | vorinostat 0.095 | silmitasertib -0.022 | [2] -0.029 | entospletinib 0.028

LYAR (UniProt Q9NX58)
inactive: [1] 0.011 | vorinostat 0.109 | silmitasertib 0.005 | [2] 0.001 | entospletinib 0.014

MAGEC2 (UniProt Q9UBF1)
inactive: [1] -0.005 | vorinostat -0.005 | silmitasertib -0.008 | [2] -0.011 | entospletinib 0.03

MAP3K2 (UniProt Q9Y2U5)
inactive: [1] 0.435 | vorinostat -0.016 | silmitasertib -0.008 | [2] 0.087 | entospletinib 0.005

MAP1A (UniProt P78559)
inactive: [1] 0.007 | vorinostat 0.026 | silmitasertib -0.017 | [2] 0 | entospletinib 0.001

MAP3K20 isoform 2 (UniProt Q9NYL2)
inactive: [1] -0.057 | vorinostat 0.124 | silmitasertib 0.036 | [2] -0.033 | entospletinib -0.064

LTO1 (UniProt Q8WV07)
inactive: [1] 0.064 | vorinostat -0.041 | silmitasertib 0.017 | [2] -0.076 | entospletinib -0.014

MAP2K1 (UniProt Q02750)
inactive: [1] -0.005 | vorinostat -0.116 | silmitasertib 0.108 | [2] 0.006 | entospletinib 0.03

MANF (UniProt P55145)
inactive: [1] 0.006 | vorinostat 0.078 | silmitasertib -0.045 | [2] 0.013 | entospletinib -0.01

LYRM4 (UniProt Q9HD34)
inactive: [1] 0.01 | vorinostat 0.119 | silmitasertib -0.019 | [2] 0.023 | entospletinib 0.007

MAP1B (UniProt P46821)
inactive: [1] 0.008 | vorinostat 0.053 | silmitasertib -0.013 | [2] -0.011 | entospletinib 0

MAPKAPK5 (UniProt Q8IW41)
inactive: [1] -0.012 | vorinostat 0.07 | silmitasertib 0.002 | [2] 0.052 | entospletinib 0.028

LZTS2 (UniProt Q9BRK4)
inactive: [1] 0.163 | vorinostat -0.055 | silmitasertib 0.041 | [2] 0.048 | entospletinib -0.064

MAP7D1 (UniProt Q3KQU3)
inactive: [1] 0.083 | vorinostat -0.108 | silmitasertib 0.007 | [2] -0.028 | entospletinib -0.014

MAT2B (UniProt Q9NZL9)
inactive: [1] 0.019 | vorinostat 0.103 | silmitasertib 0.005 | [2] 0.021 | entospletinib 0.024

MAGEA4 (UniProt P43358)
inactive: [1] -0.079 | vorinostat 0.052 | silmitasertib -0.034 | [2] 0.036 | entospletinib 0.019

MAGEA6 (UniProt P43360)
inactive: [1] 0.008 | vorinostat 0.055 | silmitasertib 0.089 | [2] 0.154 | entospletinib -0.07

Five entries picked at random from the list so far:
LYAR (UniProt Q9NX58)
inactive: [1] 0.011 | vorinostat 0.109 | silmitasertib 0.005 | [2] 0.001 | entospletinib 0.014

LYSMD3 (UniProt Q7Z3D4)
inactive: [1] 0.01 | vorinostat 0.095 | silmitasertib -0.022 | [2] -0.029 | entospletinib 0.028

MAP1B (UniProt P46821)
inactive: [1] 0.008 | vorinostat 0.053 | silmitasertib -0.013 | [2] -0.011 | entospletinib 0

MAPKAPK3 (UniProt Q16644)
inactive: [1] -0.063 | silmitasertib -0.001 | [2] 0.162 | entospletinib -0.049
active: vorinostat -0.43

MAP2K2 (UniProt P36507)
inactive: [1] -0.031 | vorinostat -0.088 | silmitasertib 0.099 | [2] 0.032 | entospletinib 0.04

(continued)

MAP11 (UniProt Q8WVR3)
active: vorinostat -0.488
inactive: [1] -0.017 | silmitasertib -0.015 | [2] 0.056 | entospletinib -0.131

MAP3K20 (UniProt Q9NYL2)
inactive: [1] 0.058 | vorinostat -0.029 | silmitasertib 0.019 | [2] 0.044 | entospletinib 0.054

MAF1 (UniProt Q9H063)
inactive: [1] -0.019 | vorinostat -0.139 | silmitasertib -0.027 | [2] 0.109 | entospletinib -0.06

MAD2L1 (UniProt Q13257)
inactive: [1] -0.006 | vorinostat 0.024 | silmitasertib 0 | [2] -0.021 | entospletinib 0.045

MARCHF5 (UniProt Q9NX47)
inactive: [1] 0.087 | vorinostat 0.172 | silmitasertib -0.023 | [2] -0.041 | entospletinib -0.013

LYRM2 (UniProt Q9NU23)
inactive: [1] 0.055 | vorinostat 0.109 | silmitasertib 0.017 | [2] -0.133 | entospletinib -0.045

MAN1B1 (UniProt Q9UKM7)
inactive: [1] -0.017 | vorinostat 0.051 | silmitasertib 0.02 | [2] -0.044 | entospletinib 0.056

LYN (UniProt P07948)
inactive: [1] 0.025 | vorinostat -0.305 | silmitasertib -0.058 | [2] -0.108 | entospletinib 0.149

MAP3K7 (UniProt O43318)
inactive: [1] -0.01 | vorinostat -0.161 | silmitasertib 0.006 | [2] -0.032 | entospletinib 0.013

MAD2L1BP isoform 3 (UniProt Q15013)
inactive: [1] -0.026 | silmitasertib -0.019 | [2] 0.008 | entospletinib 0
active: vorinostat -0.299

MACROD1 (UniProt Q9BQ69)
inactive: [1] 0.11 | silmitasertib 0.04 | [2] 0.05 | entospletinib 0.047
active: vorinostat -0.363

MACO1 (UniProt Q8N5G2)
inactive: [1] 0.081 | vorinostat 0.028 | silmitasertib -0.003 | [2] -0.003 | entospletinib 0.005

MAP7 (UniProt Q14244)
inactive: [1] 0.063 | vorinostat -0.015 | silmitasertib 0.113 | [2] -0.112 | entospletinib 0.001

LYPLAL1 (UniProt Q5VWZ2)
inactive: [1] 0.032 | vorinostat -0.057 | silmitasertib -0.012 | [2] 0.013 | entospletinib 0.007

MAT2A (UniProt P31153)
inactive: [1] 0.007 | vorinostat 0.067 | silmitasertib 0.03 | [2] -0.01 | entospletinib 0

MAK16 (UniProt Q9BXY0)
inactive: [1] 0.071 | vorinostat 0.094 | silmitasertib -0.024 | [2] 0.022 | entospletinib -0.067

LYSMD2 (UniProt Q8IV50)
inactive: [1] 0.007 | vorinostat -0.006 | silmitasertib 0.007 | [2] -0.06 | entospletinib 0.007

MAST4 (UniProt O15021)
inactive: [1] -0.073 | vorinostat -0.381 | silmitasertib 0.281 | [2] -0.025 | entospletinib 0.018

MAFF (UniProt Q9ULX9)
inactive: [1] 0.093 | vorinostat 0.01 | silmitasertib -0.153 | [2] -0.163 | entospletinib 0.083

M6PR (UniProt P20645)
inactive: [1] 0.026 | vorinostat -0.114 | silmitasertib 0.014 | [2] -0.002 | entospletinib -0.056

MALSU1 (UniProt Q96EH3)
inactive: [1] -0.002 | vorinostat -0.015 | silmitasertib -0.025 | [2] -0.005 | entospletinib -0.009

MAGI1 isoform 6 (UniProt Q96QZ7)
inactive: [1] 0.068 | vorinostat 0.001 | silmitasertib -0.026 | [2] 0.002 | entospletinib -0.008
